In PMC10558571:
These are yes or no findings as the source states them, for the method shown. Binding seen in cells or lysates may run through a third protein. Here binding means that the protein was enriched with, or labelled near, the bait; the list need not be complete.

Amino acid sequences for entries named in this document (tags omitted).
UniProt P11413: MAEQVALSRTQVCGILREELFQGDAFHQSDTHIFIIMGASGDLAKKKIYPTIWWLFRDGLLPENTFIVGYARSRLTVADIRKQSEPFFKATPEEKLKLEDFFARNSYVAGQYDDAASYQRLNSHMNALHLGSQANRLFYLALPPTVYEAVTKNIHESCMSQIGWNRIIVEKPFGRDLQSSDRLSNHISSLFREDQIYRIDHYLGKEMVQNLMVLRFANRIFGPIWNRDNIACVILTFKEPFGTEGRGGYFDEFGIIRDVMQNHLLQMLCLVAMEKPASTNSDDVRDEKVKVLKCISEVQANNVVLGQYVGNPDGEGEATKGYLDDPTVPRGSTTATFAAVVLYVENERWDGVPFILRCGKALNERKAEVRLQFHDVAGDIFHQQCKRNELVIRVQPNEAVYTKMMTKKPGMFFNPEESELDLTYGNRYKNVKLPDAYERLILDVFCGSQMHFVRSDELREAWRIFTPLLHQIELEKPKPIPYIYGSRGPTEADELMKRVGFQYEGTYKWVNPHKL
UniProt P11142: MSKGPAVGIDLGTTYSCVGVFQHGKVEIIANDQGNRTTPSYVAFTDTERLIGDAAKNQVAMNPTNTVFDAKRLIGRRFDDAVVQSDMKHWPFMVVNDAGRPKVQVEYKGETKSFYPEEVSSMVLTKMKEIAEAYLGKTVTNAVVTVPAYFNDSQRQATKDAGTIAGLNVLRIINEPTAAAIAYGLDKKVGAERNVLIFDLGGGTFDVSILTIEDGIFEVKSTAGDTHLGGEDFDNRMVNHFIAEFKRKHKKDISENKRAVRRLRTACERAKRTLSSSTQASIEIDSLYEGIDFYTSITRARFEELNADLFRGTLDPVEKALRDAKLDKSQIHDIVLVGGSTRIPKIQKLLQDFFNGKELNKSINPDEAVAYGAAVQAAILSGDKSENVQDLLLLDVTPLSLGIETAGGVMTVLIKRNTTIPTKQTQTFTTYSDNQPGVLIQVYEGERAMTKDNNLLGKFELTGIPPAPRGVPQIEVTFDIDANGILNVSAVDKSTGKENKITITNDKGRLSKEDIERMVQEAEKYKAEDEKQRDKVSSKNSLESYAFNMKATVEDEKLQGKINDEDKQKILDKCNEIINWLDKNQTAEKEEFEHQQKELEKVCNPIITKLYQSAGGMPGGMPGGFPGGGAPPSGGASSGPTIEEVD

Target: Glucose-6-phosphate dehydrogenase (G6PD), 3×flag-tagged, overexpressed in SBC2 cells (UniProt P11413)
Test: affinity purification with mass spectrometry; whole cell lysates of SBC2 cells with G6PD overexpression, supernatant incubated with anti-Flag antibody (mouse) or anti-IgG antibody (mouse) for 12 h at 4 °C, washed three times with TBS; mass spectrometric analysis by PTM BIOLAB

binding: binds
Substance: HSPA8/HSC70 (from UniProt P11142 1-646)
